Data taken from the supplement of paper PMC5949888.
Most values lie at the floor of the assay. Slopes are relative: functional sequences can read slightly below zero.

test system: Saccharomyces cerevisiae PS128 hsf1 delta, HSF1(1-493) fusion; test: growth estimate (transactivation domain function in HSF1 fusion, heat-shock survival) (a.u. (slope of normalised read count over time)); higher = stronger growth at 37°C, i.e. more transactivation activity; conditions: library: random library

| Substance | growth estimate |
| --- | --- |
| MGAWAIGQAGGPQLCQEVRS | < -0.25 |
| VVPGIEVDRLMTMLHNIDST | < -0.25 |
| RQVSLDGESTIERFPWL | < -0.25 |
| VSGRWGEWGRSLHYSANLVR | < -0.25 |
| HHRGRMVPPW | < -0.25 |
| YPERLLLLYYQLFTTPNTMQ | < -0.25 |
| SQWL | < -0.25 |
| DCTEKPQTVRGHHMYSSTLV | < -0.25 |
| TGS | < -0.25 |
| GPLVSGIVSLKPQ | < -0.25 |
| SSTRVIQNAPILHTTRQKF | < -0.25 |
| AICLGP | < -0.25 |
| FDIGGESVRACTSGSLVLAS | < -0.25 |
| HRDFSSTQ | < -0.25 |
| VRSGGQCSPCASGRTFPQL | < -0.25 |
| KLDVWRGLTNSISGPIGSGI | < -0.25 |
| SMFVRMLDVVCRSGLVVVSG | < -0.25 |
| VGSYTLR | < -0.25 |
| PGGSLYGHQRNSIEMVQFEQ | < -0.25 |
| HCDVKPETRGGRDMITVRLA | < -0.25 |
| AYFTRTSGRSTVGPV | 0.116 |

| Substance | growth estimate |
| --- | --- |
| RTVFEDRSWSVTGCCF | < -0.25 |
| RPSGDRERW | < -0.25 |
| FFGEGQFTVIDRRLGMRRPH | < -0.25 |
| PCAQGALRRYWVHGHLIFPQ | < -0.25 |
| KEKVWSGTFTLRRTSYVKIG | -0.246 |
| GYGRTLWPCCG | < -0.25 |
| IRITATGRFINIASEVESGR | < -0.25 |
| CEVTYFGSYLPHGTKRFVRD | < -0.25 |
| QFKTGRGLNQCTLAQSLCRI | < -0.25 |
| AYPAGPVPVLATRSNECLER | < -0.25 |
| CPRTGISTGESLAIAFL | < -0.25 |
| FGLLILAPRTSLPL | < -0.25 |
| RPAGSHHRQIGLVHGGYGSS | < -0.25 |
| SSKRYNPHVSTGRNANRHTL | < -0.25 |
| PMERSSRFLRRSEDAWLV | < -0.25 |
| LPGLGLSKMPRGGVWGNLRP | < -0.25 |
| RGGATAPELVLEMQSSSLGD | < -0.25 |
| WGTVTGQ | < -0.25 |
| SRSRNRGGLTSGCARDGDDP | < -0.25 |
| EKFERTHAL | < -0.25 |
| GARRPHPSN | < -0.25 |

| Substance | growth estimate |
| --- | --- |
| PRRFNPGRHTHNSSGRRDAH | < -0.25 |
| RYPGAI | < -0.25 |
| GSQGGDAYH | < -0.25 |
| TPMCSRRCSIGDLVGLWNPG | < -0.25 |
| AHGSCKCIP | < -0.25 |
| AGKDDTDRQPYLKYLTLLAL | < -0.25 |
| PQGMHHFQGANRPPRVEVLA | < -0.25 |
| LNLTIGAVPRSIGHPSL | < -0.25 |
| RPASLLHGLKLQIVVISVNA | < -0.25 |
| KSSLSPSLFYMRD | < -0.25 |
| RSPLSSREACNS | < -0.25 |
| VWV | < -0.25 |
| CLTASTVVDQPSVETVPWST | < -0.25 |
| LALTNRQLLHYIV | < -0.25 |
| IPTSVASRIPTLGKQIRGLM | < -0.25 |
| VSHHLCTCALE | < -0.25 |
| CCDE | < -0.25 |
| NLYTHLHEGLGPVK | < -0.25 |
| ISGLSGLPRYLRDHVCALAV | < -0.25 |
| IDM | < -0.25 |
| PNRVNVGDQNKSTDSRI | < -0.25 |

| Substance | growth estimate |
| --- | --- |
| SSHITLHPQRHTRWVTPLNV | < -0.25 |
| GLNITDC | < -0.25 |
| SRPNSAVR | < -0.25 |
| RIDYPRPDHKVATRAGEIPR | < -0.25 |
| AQRLRLDCKVLPARCALWER | < -0.25 |
| IGLRVLRGYPH | < -0.25 |
| WPLMRA | < -0.25 |
| NPGQ | < -0.25 |
| YERSGSPC | < -0.25 |
| IILP | < -0.25 |
| CWDKRNGQLRVDQPYYLG | < -0.25 |
| EGPGF | < -0.25 |
| SEC | < -0.25 |
| SWLGVICRSSASSLIIRDRF | -0.0983 |
| GIEATIHRP | < -0.25 |
| YLTVYTGAAPVPLIWAKLVL | < -0.25 |
| NTVSSE | < -0.25 |
| RYPA | < -0.25 |

In a second layout: entries from further up
Substance | growth estimate
EGPGF | < -0.25
SEC | < -0.25
SWLGVICRSSASSLIIRDRF | -0.0983
GIEATIHRP | < -0.25
YLTVYTGAAPVPLIWAKLVL | < -0.25
NTVSSE | < -0.25
RYPA | < -0.25
